Measurements: article PMC6955894
For some of these results: A negative result means that nothing was seen under these conditions. For some of these results: Construct, isoform or probe ends are uncertain for at least one entry. For some of these results: Weaker means in comparison with the reference protein, sequence or condition of that experiment.

Columns and labels:
lysozyme = assay: MST; conditions: slight signal at high lysozyme only, unspecific, TBSET: 10 mM Tris, 100 mM NaCl, 50 mM KCl, 0.05 mM EDTA, 0.05% Tween 20, pH 7, MST with 25 nM aptamer, 20 min at 20 C, read at room temperature, commercial protein
alpha-chymotrypsin = assay: MST; conditions: hardly any binding, under 5 units, marginal above 3.75 uM, TBSET: 10 mM Tris, 100 mM NaCl, 50 mM KCl, 0.05 mM EDTA, 0.05% Tween 20, pH 7, MST with 25 nM aptamer, 20 min at 20 C, read at room temperature, commercial protein
VEGF-A165 (human) = assay: microarray TID (competition); conditions: 1 uM VEGF, 100 pM cV7t1-Cy5: no effect; 3' NH2 on strand 1, immobilized on aldehyde slide; TBSET: 10 mM Tris, 100 mM NaCl, 50 mM KCl, 0.05 mM EDTA, 0.05% Tween 20, pH 7; recombinant protein; label: 3' Cy5 on strand 2
[1] = label: 3' Cy5, single-stranded DNA
[2] = label: 3' Cy5, folded or branched DNA
[3] = label: 5' FITC, folded or branched DNA

## ATACCAGTCTATTCAATTGGGCCCGTCCGTATGGTGGGTGTGCTGGCCAG [Del5-1-Cy5]
lysozyme; [1]
  binding result: binds more weakly
alpha-chymotrypsin; [1]
  binding result: binds more weakly

## TGTGGGGGTGGACGGGCCGGGTAGATAGTATGTGCAATC [V7t1-Cy5]
lysozyme; [2]
  binding result: binds more weakly
alpha-chymotrypsin; [2]
  binding result: binds more weakly

## TGTGGGGGTGGACGGGCCGGGTAGATAGTATGTGCATTC / CCGTCCACCCCC [V7t1-NH2/cV7t1-Cy5]
VEGF-A165 (human)
  binding result: no binding

## TGTGGGGGTGGACGGGCCGGGTAGATAGTATGTGCATTC [V7t1-FITC]
lysozyme; [3]
  binding result: binds more weakly
alpha-chymotrypsin; [3]
  binding result: binds more weakly
